Some compounds share one range, which may span the group rather than tell each member.

The series has as its system MDA-MB-468 (TNBC) cells. The series can be described thus: Cell surface HLA-bound peptidyl-citrullinome by mass spectrometry, MDA-MB-468. In kind it is cell-based, human. The note with it: mild acid elution, LC-MS/MS, FDR=0.01; class by peptide length.
Consider “ISWYDNEFGYSNR*VVDL (ISWYDNEFGYSNRVVDL; citrulline at R13; MOD_RES (13)..(13) Citrullinated Arginine) [SEQ ID NO: 48, GAPDH peptide, R13(Cit.)]”, for which the “Cell surface MHC binding citrullinated peptide identified in MDA-MB-468 (TNBC)” value is listed as “MHC-II (from 12 to 34 as MHC-IU binding peptides)”.

As to “AEKWTTVPR*QHVCVESTDR*QIKTIRPN (AEKWTTVPRQHVCVESTDRQIKTIRPN; citrulline at R9 and R19; MOD_RES (9)..(9) Citrullinated Arginine; MOD_RES (19)..(19) Citrullinated Arginine) [SEQ ID NO: 78, PCSK5 peptide, R9(Cit.); R19(Cit.)]”, the “Cell surface MHC binding citrullinated peptide identified in MDA-MB-468 (TNBC)” value is reported as “MHC-II (from 12 to 34 as MHC-IU binding peptides)”. As for “MEDLDR*NKDQEVNFQE (MEDLDRNKDQEVNFQE; citrulline at R6; MOD_RES (6)..(6) Citrullinated Arginine) [SEQ ID NO: 112, S100A6 peptide, R6(Cit.)]”, the “Cell surface MHC binding citrullinated peptide identified in MDA-MB-468 (TNBC)” value was “MHC-II (from 12 to 34 as MHC-IU binding peptides)”. As for “WDR*NNPEPWNKLGPNDQYK (WDRNNPEPWNKLGPNDQYK; citrulline at R3; MOD_RES (3)..(3) Citrullinated Arginine) [SEQ ID NO: 68, NDUFA4 peptide, R3(Cit.)]”, the “Cell surface MHC binding citrullinated peptide identified in MDA-MB-468 (TNBC)” value was “MHC-II (from 12 to 34 as MHC-IU binding peptides)”.

For “MIREADVDQDGR*VNYEE (MIREADVDQDGRVNYEE; citrulline at R12; MOD_RES (12)..(12) Citrullinated Arginine) [SEQ ID NO: 16, CALML5 peptide, R12(Cit.)]”, the “Cell surface MHC binding citrullinated peptide identified in MDA-MB-468 (TNBC)” value is on record as “MHC-II (from 12 to 34 as MHC-IU binding peptides)”. The entry for “R*TKSTGGAPTENVTVTKTDKTL (RTKSTGGAPTFNVTVTKTDKTL; citrulline at R1; MOD_RES (1)..(1) Citrullinated Arginine) [SEQ ID NO: 80, PFN1 peptide, R1(Cit.)]” is “MHC-II (from 12 to 34 as MHC-IU binding peptides)”. The entry for “YVLEQASSHIGNSTQATVR*DAVVGR*PSMDKKAQ (YVLEQASSHIGNSTQATVRDAVVGRPSMDKKAQ; citrulline at R19 and R25; MOD_RES (19)..(19) Citrullinated Arginine; MOD_RES (25)..(25) Citrullinated Arginine) [SEQ ID NO: 5, ATL3 peptide, R19(Cit.); R25(Cit.)]” is “MHC-II (from 12 to 34 as MHC-IU binding peptides)”.

On to “VNTPKKQGGLGPMNIPLVSDPKR*TIAQDYG (VNTPKKQGGLGPMNIPLVSDPKRTIAQDYG; citrulline at R23; MOD_RES (23)..(23) Citrullinated Arginine) [SEQ ID NO: 103, PRDX1 peptide, R23(Cit.)]”, for which the “Cell surface MHC binding citrullinated peptide identified in MDA-MB-468 (TNBC)” value is “MHC-II (from 12 to 34 as MHC-IU binding peptides)”. As to “MIREADVDQDGR*VNYEEF (MIREADVDQDGRVNYEEF; citrulline at R12; MOD_RES (12)..(12) Citrullinated Arginine) [SEQ ID NO: 17, CALML5 peptide, R.12(Cit.)]”, the “Cell surface MHC binding citrullinated peptide identified in MDA-MB-468 (TNBC)” value is on record as “MHC-II (from 12 to 34 as MHC-IU binding peptides)”. On to “LIR*KHTGSGILSMANAGPNINGSQFF [SEQ ID NO: 93]”, for which the “Cell surface MHC binding citrullinated peptide identified in MDA-MB-468 (TNBC)” value is “MHC-II (from 12 to 34 as MHC-IU binding peptides)”.

With “FKSPDDPSR*YISPDQLADL (FKSPDDPSRYISPDQLADL; citrulline at R9; MOD_RES (9)..(9) Citrullinated Arginine) [SEQ ID NO: 41, ENO1 peptide, R9(Cit.)]”, the “Cell surface MHC binding citrullinated peptide identified in MDA-MB-468 (TNBC)” value is on record as “MHC-II (from 12 to 34 as MHC-IU binding peptides)”.

For “R*VFQSLPHENKPLTLSNYQTNKAKHDE (RVFQSLPHENKPLTLSNYQTNKAKHDE; citrulline at R1; MOD_RES (1)..(1) Citrullinated Arginine) [SEQ ID NO: 30, CSTB peptide, RI(Cit.)]”, the “Cell surface MHC binding citrullinated peptide identified in MDA-MB-468 (TNBC)” value is “MHC-II (from 12 to 34 as MHC-IU binding peptides)”. In the case of “HIQQNEALAAKAGLLGQPR* (citrulline at R19; MOD_RES (19)..(19) Citrullinated Arginine) [SEQ ID NO: 130, TIMM9 peptide, R19(Cit.)]”, the “Cell surface MHC binding citrullinated peptide identified in MDA-MB-468 (TNBC)” value was “MHC-II (from 12 to 34 as MHC-IU binding peptides)”. As for “WKVTR*KDGNASGTTLLE (WKVTRKDGNASGTTLLE; citrulline at R5; MOD_RES (5)..(5) Citrullinated Arginine) [SEQ ID NO: 36, EEF1A1 peptide, R5(Cit.)]”, the “Cell surface MHC binding citrullinated peptide identified in MDA-MB-468 (TNBC)” value was “MHC-II (from 12 to 34 as MHC-IU binding peptides)”. Consider “VIGLQMGTNR*GASQAGMTGYGMPRQIL (VIGLQMGTNRGASQAGMTGYGMPRQIL; citrulline at R10; oxidized M17; MOD_RES (10)..(10) Citrullinated Arginine; MOD_RES (17)..(17) Oxidized Methionine) [SEQ ID NO: 128, TAGLN2 peptide, R10(Cit.); M17(Oxi.)]”, for which the “Cell surface MHC binding citrullinated peptide identified in MDA-MB-468 (TNBC)” value is recorded as “MHC-II (from 12 to 34 as MHC-IU binding peptides)”.

With “RLVPFDHAESTYGLYR*THL (RLVPFDHAESTYGLYRTHL; citrulline at R16; MOD_RES (16)..(16) Citrullinated Arginine) [SEQ ID NO: 84, PGLS peptide, R16(Cit.)]”, the “Cell surface MHC binding citrullinated peptide identified in MDA-MB-468 (TNBC)” value is on record as “MHC-II (from 12 to 34 as MHC-IU binding peptides)”. As for “LALRKR*TPSAGKAMDTPKPAVSDEKNINTF (LALRKRTPSAGKAMDTPKPAVSDEKNINTF; citrulline at R6; MOD_RES (6)..(6) Citrullinated Arginine) [SEQ ID NO: 67, MK167 peptide, R6(Cit.)]”, the “Cell surface MHC binding citrullinated peptide identified in MDA-MB-468 (TNBC)” value is “MHC-II (from 12 to 34 as MHC-IU binding peptides)”.

As for “FTR*HNGTGGKSIYGEKF (FTRHNGTGGKSIYGEKF; citrulline at R3; MOD_RES (3)..(3) Citrullinated Arginine) [SEQ ID NO: 90, PPIA peptide, R3(Cit.)]”, the “Cell surface MHC binding citrullinated peptide identified in MDA-MB-468 (TNBC)” value is recorded as “MHC-II (from 12 to 34 as MHC-IU binding peptides)”. Consider “LETADGESMNTEESNQGSTPSDQQQNKLR* (citrulline at R29; MOD_RES (29)..(29) Citrullinated Arginine) [SEQ ID NO: 99, PPP1R2P3 peptide, R29(Cit.)]”, for which the “Cell surface MHC binding citrullinated peptide identified in MDA-MB-468 (TNBC)” value was “MHC-II (from 12 to 34 as MHC-IU binding peptides)”. Take “HLGR*PDGVPMPDKYSLEPVAVELK (HLGRPDGVPMPDKYSLEPVAVELK; citrulline at R4; MOD_RES (4)..(4) Citrullinated Arginine) [SEQ ID NO: 81, PGK1 peptide, R4(Cit.)]”: the “Cell surface MHC binding citrullinated peptide identified in MDA-MB-468 (TNBC)” value is “MHC-II (from 12 to 34 as MHC-IU binding peptides)”. In the case of “NVAEVDKVTGR*FNGQFKTY (NVAEVDKVTGRFNGQFKTY; citrulline at R11; MOD_RES (11)..(11) Citrullinated Arginine) [SEQ ID NO: 109, RPS21 peptide, R11(Cit.)]”, the “Cell surface MHC binding citrullinated peptide identified in MDA-MB-468 (TNBC)” value is reported as “MHC-II (from 12 to 34 as MHC-IU binding peptides)”. Take “WAALENKSKQR*TNPSPTNPFSSDLQKT (WAALENKSKQRTNPSPTNPFSSDLQKT; citrulline at R11; MOD_RES (11)..(11) Citrullinated Arginine) [SEQ ID NO: 74, NUMB peptide, RII(Cit.)]”: the “Cell surface MHC binding citrullinated peptide identified in MDA-MB-468 (TNBC)” value is “MHC-II (from 12 to 34 as MHC-IU binding peptides)”. As for “LLKNGER*IEKVEHSDLSFSKDWS (LLKNGERIEKVEHSDLSFSKDWS; citrulline at R7; MOD_RES (7)..(7) Citrullinated Arginine) [SEQ ID NO: 10, B2M peptide, R7(Cit.)]”, the “Cell surface MHC binding citrullinated peptide identified in MDA-MB-468 (TNBC)” value is listed as “MHC-II (from 12 to 34 as MHC-IU binding peptides)”. Turning to “YVLEQASSHIGNSTQATVR*DAVVGRPSMDKKAQ (YVLEQASSHIGNSTQATVRDAVVGRPSMDKKAQ; citrulline at R19; MOD_RES (19)..(19) Citrullinated Arginine) [SEQ ID NO: 6, ATL3 peptide, R19(Cit.)]”, the “Cell surface MHC binding citrullinated peptide identified in MDA-MB-468 (TNBC)” value is given as “MHC-II (from 12 to 34 as MHC-IU binding peptides)”.

For the substance “R*VDQIIMAKPAGGPKPPSGKKDWDDDQND (RVDQIIMAKPAGGPKPPSGKKDWDDDQND; citrulline at R1; MOD_RES (1)..(1) Citrullinated Arginine) [SEQ ID NO: 24, CCT8 peptide, RI(Cit.)]”, the “Cell surface MHC binding citrullinated peptide identified in MDA-MB-468 (TNBC)” value is recorded as “MHC-II (from 12 to 34 as MHC-IU binding peptides)”. For “LIR*KHTGSGILSMANAGPN (LIRKHTGSGILSMANAGPN; citrulline at R3; MOD_RES (3)..(3) Citrullinated Arginine) [SEQ ID NO: 96, PPIAL4E peptide, R3(Cit.)]”, the “Cell surface MHC binding citrullinated peptide identified in MDA-MB-468 (TNBC)” value is given as “MHC-II (from 12 to 34 as MHC-IU binding peptides)”. For the substance “SGLKSLQTVSGR*QQL (SGLKSLQTVSGRQQL; citrulline at R12; MOD_RES (12)..(12) Citrullinated Arginine) [SEQ ID NO: 2, API5 peptide, R12(Cit.)]”, the “Cell surface MHC binding citrullinated peptide identified in MDA-MB-468 (TNBC)” value is “MHC-II (from 12 to 34 as MHC-IU binding peptides)”.

For “FVHLR*VFQSLPHENKPLTLSNYQTNKAKHDE (FVHLRVFQSLPHENKPLTLSNYQTNKAKHDE; citrulline at R5; MOD_RES (5)..(5) Citrullinated Arginine) [SEQ ID NO: 29, CSTB peptide, R5(Cit.)]”, the “Cell surface MHC binding citrullinated peptide identified in MDA-MB-468 (TNBC)” value is on record as “MHC-II (from 12 to 34 as MHC-IU binding peptides)”. Turning to “NVVKTGR*VMLGETNPADSKPGTIRGDF (NVVKTGRVMLGETNPADSKPGTIRGDF; citrulline at R7; MOD_RES (7)..(7) Citrullinated Arginine) [SEQ ID NO: 70, NME2 peptide, R7(Cit.)]”, the “Cell surface MHC binding citrullinated peptide identified in MDA-MB-468 (TNBC)” value is “MHC-II (from 12 to 34 as MHC-IU binding peptides)”. The entry for “R*R*LSEDYGVLKTDEGIAYRG (RRLSEDYGVLKTDEGIAYRG; citrulline at R1 and R2; MOD_RES (1)..(2) Citrullinated Arginine) [SEQ ID NO: 105, PRDX2 peptide, R1(Cit.); R2(Cit.)]” is “MHC-II (from 12 to 34 as MHC-IU binding peptides)”.

The values are drawn from patent US20240201191A1, “CITRULLINATED PROTEINS AS BIOMARKERS AND THERAPY TARGETS FOR CANCER” (BOARD OF REGENTS, THE UNIVERSITY OF TEXAS SYSTEM, priority 2022, published 2024).
